± gives the standard deviation of the averaged measurements. This is a selection; strong and weak results do not stand in their true shares.
Compound: Nc1ncnc2c1ncn2[C@@H]1O[C@H](COP(=O)(O)OP(=O)(O)OP(=O)(O)O)[C@@H](O)[C@H]1O [adenosine triphosphate]
Test: NP40-soluble protein abundance relative to vehicle (solubility fold change) (ratio); higher = more soluble protein in presence of ATP
In short: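 In three independent experiments, Jurkat crude lysate made by Dounce homogenisation was treated for 10 min at room temperature and then 3 min at 37 °C with eight concentrations ranging from 0.1 to 10 mM. It was then solubilised with 0.8% NP40 plus benzonase for 60 min at 4 °C and ultracentrifuged. The supernatant was TMT-labelled for LC-MS/MS, and each value is the fold change against the detergent-processed vehicle for the same replicate, using vsn-normalised intensities.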

Protein sequences, listed by entry. Tags and fused reporters are not part of them. Lines headed by an entry give the natural chain unless they say otherwise; changes in a name come on top.
UniProt P20936: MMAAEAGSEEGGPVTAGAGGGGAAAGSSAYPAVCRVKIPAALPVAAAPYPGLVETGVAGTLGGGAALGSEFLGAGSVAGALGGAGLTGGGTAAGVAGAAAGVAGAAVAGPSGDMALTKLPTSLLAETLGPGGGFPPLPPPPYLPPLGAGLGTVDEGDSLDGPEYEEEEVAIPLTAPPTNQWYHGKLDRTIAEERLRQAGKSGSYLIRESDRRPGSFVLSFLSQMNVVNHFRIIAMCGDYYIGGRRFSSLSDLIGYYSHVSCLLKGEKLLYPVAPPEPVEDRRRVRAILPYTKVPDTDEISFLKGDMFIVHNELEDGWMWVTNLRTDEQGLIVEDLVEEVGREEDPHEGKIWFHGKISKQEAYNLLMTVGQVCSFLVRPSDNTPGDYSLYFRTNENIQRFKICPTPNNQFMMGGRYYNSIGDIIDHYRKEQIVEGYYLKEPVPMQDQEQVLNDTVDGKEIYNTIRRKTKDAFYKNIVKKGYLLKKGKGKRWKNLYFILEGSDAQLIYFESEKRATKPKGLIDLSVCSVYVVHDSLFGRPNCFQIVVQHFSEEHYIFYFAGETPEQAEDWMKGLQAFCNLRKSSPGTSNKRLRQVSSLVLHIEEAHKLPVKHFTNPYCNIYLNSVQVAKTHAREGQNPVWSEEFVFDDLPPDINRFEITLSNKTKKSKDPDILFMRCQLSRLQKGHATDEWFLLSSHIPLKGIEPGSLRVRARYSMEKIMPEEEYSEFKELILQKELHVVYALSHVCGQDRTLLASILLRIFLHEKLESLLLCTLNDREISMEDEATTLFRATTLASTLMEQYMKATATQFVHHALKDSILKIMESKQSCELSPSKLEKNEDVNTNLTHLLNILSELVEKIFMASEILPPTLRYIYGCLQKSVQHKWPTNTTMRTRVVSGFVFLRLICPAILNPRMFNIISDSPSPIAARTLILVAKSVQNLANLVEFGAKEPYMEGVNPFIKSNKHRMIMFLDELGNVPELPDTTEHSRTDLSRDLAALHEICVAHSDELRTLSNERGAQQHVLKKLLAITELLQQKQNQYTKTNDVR
UniProt P29374: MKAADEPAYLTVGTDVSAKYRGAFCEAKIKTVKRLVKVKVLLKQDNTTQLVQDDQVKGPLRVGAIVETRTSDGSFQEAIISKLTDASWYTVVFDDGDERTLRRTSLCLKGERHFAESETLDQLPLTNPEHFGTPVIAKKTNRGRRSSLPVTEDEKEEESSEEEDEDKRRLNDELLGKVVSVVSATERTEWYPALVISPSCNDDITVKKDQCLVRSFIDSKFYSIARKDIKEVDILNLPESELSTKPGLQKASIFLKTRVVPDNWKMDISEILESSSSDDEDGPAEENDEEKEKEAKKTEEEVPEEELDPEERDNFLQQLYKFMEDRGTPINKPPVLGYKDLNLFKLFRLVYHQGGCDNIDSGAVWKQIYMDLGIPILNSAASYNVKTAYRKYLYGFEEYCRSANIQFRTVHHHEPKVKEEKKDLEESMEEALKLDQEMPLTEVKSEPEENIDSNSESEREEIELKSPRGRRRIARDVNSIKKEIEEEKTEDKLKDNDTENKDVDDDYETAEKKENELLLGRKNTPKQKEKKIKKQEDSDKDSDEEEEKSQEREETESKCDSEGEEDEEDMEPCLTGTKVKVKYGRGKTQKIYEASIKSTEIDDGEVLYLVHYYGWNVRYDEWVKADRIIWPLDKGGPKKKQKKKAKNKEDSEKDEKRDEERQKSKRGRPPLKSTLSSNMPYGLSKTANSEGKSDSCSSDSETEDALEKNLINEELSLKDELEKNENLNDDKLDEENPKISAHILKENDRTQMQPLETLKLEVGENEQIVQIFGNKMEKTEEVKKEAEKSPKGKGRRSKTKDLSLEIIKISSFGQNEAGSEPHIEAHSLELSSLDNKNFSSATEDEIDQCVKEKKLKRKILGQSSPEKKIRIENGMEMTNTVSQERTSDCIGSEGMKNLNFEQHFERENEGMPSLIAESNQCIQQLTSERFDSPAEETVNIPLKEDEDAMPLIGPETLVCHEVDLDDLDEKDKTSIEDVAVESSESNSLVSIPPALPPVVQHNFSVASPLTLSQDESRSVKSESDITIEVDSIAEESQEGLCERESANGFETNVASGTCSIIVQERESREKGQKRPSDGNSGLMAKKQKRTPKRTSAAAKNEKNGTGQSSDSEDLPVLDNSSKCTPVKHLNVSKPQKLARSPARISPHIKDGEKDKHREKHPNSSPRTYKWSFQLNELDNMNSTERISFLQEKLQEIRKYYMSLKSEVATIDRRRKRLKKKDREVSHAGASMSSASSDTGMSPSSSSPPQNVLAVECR
UniProt P34896: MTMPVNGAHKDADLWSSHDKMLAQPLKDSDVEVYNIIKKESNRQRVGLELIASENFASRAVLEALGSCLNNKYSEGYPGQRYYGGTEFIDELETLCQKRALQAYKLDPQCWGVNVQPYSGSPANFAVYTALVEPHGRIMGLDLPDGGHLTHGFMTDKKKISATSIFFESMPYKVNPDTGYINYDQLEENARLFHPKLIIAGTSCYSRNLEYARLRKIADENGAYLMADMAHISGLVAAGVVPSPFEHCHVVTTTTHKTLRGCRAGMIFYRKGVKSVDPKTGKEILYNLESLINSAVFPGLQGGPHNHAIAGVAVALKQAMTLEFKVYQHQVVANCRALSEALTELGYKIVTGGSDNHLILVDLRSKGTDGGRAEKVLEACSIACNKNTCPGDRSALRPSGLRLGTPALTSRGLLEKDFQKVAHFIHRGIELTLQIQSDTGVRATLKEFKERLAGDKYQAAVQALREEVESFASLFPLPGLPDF
UniProt P28070, whole entry: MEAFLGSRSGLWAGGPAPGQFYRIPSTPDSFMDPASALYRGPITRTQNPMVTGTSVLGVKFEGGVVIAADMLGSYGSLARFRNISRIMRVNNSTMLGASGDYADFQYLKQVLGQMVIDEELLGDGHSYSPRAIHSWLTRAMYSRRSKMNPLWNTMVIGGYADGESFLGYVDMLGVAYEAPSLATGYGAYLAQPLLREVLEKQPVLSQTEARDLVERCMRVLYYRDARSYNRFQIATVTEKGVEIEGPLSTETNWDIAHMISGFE
UniProt P17980, whole entry: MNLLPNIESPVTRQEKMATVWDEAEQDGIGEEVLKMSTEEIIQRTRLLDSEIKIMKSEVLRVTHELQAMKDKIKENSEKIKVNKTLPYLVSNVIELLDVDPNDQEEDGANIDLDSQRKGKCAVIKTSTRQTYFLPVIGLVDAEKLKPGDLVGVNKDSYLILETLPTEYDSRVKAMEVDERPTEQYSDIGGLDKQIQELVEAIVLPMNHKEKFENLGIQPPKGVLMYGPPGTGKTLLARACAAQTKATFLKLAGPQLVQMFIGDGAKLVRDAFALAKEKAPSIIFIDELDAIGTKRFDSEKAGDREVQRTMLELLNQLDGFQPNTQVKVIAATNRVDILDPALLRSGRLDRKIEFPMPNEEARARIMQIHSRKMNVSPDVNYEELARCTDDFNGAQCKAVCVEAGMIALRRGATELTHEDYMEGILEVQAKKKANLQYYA
UniProt P27105: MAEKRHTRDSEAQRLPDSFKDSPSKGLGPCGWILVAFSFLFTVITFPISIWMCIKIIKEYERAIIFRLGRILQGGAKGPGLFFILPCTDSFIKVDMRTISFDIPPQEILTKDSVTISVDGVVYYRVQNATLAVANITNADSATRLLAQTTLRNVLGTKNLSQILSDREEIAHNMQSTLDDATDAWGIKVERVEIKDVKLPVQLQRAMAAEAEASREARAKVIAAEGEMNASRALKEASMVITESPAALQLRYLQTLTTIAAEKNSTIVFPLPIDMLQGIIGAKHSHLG
UniProt P29401: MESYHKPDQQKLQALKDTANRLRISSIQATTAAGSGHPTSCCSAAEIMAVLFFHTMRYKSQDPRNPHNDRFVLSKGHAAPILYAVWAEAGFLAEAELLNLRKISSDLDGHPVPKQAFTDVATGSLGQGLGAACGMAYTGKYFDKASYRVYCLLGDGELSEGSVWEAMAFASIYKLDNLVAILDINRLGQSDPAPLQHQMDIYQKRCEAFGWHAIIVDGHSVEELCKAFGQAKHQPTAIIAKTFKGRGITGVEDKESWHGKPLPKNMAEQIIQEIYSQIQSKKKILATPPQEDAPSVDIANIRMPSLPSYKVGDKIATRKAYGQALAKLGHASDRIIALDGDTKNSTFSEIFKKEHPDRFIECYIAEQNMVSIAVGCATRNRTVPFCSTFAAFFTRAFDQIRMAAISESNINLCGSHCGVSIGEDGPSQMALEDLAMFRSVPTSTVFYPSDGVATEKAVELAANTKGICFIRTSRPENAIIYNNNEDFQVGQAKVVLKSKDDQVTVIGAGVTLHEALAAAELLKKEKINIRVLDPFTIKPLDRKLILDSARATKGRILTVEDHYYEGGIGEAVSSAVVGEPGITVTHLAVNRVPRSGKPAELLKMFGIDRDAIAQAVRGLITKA
UniProt P30419: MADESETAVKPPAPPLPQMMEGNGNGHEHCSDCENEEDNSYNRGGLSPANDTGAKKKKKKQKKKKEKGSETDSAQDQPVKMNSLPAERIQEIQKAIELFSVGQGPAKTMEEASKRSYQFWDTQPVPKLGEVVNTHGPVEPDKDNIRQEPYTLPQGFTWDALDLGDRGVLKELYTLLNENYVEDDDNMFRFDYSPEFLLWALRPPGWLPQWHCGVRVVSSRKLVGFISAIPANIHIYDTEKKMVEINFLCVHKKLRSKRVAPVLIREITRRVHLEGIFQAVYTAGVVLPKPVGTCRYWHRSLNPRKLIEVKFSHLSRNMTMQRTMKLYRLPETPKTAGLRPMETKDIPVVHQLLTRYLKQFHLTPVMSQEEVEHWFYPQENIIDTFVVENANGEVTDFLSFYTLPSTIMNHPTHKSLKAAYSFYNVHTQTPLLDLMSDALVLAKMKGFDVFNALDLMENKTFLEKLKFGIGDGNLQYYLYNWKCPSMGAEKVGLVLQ
UniProt P21283, whole entry: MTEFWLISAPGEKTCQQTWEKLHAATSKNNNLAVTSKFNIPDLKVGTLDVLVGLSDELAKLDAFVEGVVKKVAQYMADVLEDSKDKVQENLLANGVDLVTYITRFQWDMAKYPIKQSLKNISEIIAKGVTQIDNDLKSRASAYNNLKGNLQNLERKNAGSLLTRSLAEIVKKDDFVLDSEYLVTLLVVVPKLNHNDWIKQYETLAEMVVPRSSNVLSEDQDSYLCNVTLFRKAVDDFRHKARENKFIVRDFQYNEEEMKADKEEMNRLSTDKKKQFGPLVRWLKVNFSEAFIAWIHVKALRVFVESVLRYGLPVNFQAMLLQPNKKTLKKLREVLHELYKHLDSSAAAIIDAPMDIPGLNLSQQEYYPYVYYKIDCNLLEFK
UniProt P28072: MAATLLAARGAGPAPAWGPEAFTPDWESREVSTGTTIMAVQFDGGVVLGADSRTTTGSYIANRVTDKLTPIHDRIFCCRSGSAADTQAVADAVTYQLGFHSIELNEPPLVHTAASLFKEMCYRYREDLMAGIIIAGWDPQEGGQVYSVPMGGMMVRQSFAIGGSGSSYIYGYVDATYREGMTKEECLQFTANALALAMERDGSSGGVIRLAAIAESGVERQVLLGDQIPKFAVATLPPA
UniProt P25685, whole entry: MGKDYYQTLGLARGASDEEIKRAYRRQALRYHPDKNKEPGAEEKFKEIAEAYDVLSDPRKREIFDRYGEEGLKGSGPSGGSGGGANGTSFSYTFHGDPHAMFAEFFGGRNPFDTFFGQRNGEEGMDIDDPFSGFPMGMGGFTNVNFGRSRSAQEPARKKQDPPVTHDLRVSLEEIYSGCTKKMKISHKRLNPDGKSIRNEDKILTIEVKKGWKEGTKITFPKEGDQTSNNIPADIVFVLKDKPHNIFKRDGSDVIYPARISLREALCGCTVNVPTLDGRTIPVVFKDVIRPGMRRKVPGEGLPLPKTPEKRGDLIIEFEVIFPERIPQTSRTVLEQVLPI
UniProt P30291: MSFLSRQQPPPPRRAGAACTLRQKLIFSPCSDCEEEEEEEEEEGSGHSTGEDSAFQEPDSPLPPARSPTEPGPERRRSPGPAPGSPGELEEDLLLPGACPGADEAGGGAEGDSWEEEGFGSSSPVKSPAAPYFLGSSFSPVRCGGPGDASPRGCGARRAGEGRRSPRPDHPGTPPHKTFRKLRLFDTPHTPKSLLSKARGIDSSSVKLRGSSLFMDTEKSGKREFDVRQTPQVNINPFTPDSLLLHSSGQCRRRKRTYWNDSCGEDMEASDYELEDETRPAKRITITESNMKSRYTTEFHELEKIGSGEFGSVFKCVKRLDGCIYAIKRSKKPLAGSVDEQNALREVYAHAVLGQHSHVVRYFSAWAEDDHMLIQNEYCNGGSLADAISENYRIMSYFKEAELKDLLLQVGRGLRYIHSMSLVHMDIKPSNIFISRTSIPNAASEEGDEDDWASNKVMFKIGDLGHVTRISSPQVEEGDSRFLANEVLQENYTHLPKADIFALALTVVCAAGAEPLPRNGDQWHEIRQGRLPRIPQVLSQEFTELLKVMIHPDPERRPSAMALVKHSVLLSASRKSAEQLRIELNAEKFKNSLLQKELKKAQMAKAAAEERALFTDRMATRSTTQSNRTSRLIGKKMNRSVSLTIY

Row | Target | NP40-soluble protein abundance (concentration: 1mM) | NP40-soluble protein abundance (concentration: 2mM) | NP40-soluble protein abundance (concentration: 4mM) | NP40-soluble protein abundance (concentration: 6mM) | NP40-soluble protein abundance (concentration: 8mM) | NP40-soluble protein abundance (concentration: 10mM)
1 | UniProt P20936 and related entries | 1.02 ± 0.024 | 0.997 ± 0.015 | 1 ± 0.042 | 0.973 ± 0.043 | 1 ± 0.025 | 0.97 ± 0.035
2 | UniProt P29374 and related entries | 1.03 ± 0.046 | 1.03 ± 0.033 | 1.04 ± 0.046 | 1.06 ± 0.088 | 1.05 ± 0.061 | 1.09 ± 0.056
3 | UniProt P17612 | 0.97 ± 0.05 | 0.956 ± 0.012 | 0.885 ± 0.02 | 0.924 ± 0.024 | 0.885 ± 0.028 | 0.862 ± 0.043
4 | UniProt P34896 and related entries | 0.997 ± 0.07 | 0.992 ± 0.051 | 0.96 ± 0.035 | 0.945 ± 0.043 | 0.967 ± 0.022 | 0.965 ± 0.03
5 | PSMB4 (UniProt P28070) | 0.965 ± 0.11 | 0.943 ± 0.049 | 0.906 ± 0.041 | 0.867 ± 0.018 | 0.944 ± 0.049 | 0.928 ± 0.051
6 | UniProt P17980 and related entries | 0.935 ± 0.018 | 0.903 ± 0.0097 | 0.892 ± 0.0091 | 0.898 ± 0.076 | 0.903 ± 0.028 | 0.892 ± 0.055
7 | UniProt P27105 and related entries | 1.12 ± 0.14 | 1.11 ± 0.22 | 1.07 ± 0.18 | 1.18 ± 0.25 | 1.06 ± 0.24 | 1.06 ± 0.2
8 | UniProt P29401 and related entries | 1.02 ± 0.053 | 0.951 ± 0.034 | 0.931 ± 0.028 | 0.956 ± 0.057 | 0.95 ± 0.035 | 0.928 ± 0.046
9 | NMT1 (UniProt P30419) | 1.02 ± 0.027 | 1.04 ± 0.048 | 1.06 ± 0.016 | 1.12 ± 0.064 | 1.113 ± 0.011 | 1.09 ± 0.026
10 | CBL (UniProt P22681) | 1 ± 0.03 | 0.982 ± 0.032 | 0.99 ± 0.022 | 0.993 ± 0.032 | 0.966 ± 0.017 | 0.976 ± 0.012
11 | ATP6V1C1 (UniProt P21283) | 0.986 ± 0.035 | 0.986 ± 0.043 | 0.966 ± 0.03 | 0.979 ± 0.052 | 0.98 ± 0.032 | 0.96 ± 0.029
12 | PSMB6 (UniProt P28072) | 0.953 ± 0.018 | 0.89 ± 0.026 | 0.894 ± 0.044 | 0.906 ± 0.093 | 0.911 ± 0.056 | 0.892 ± 0.058
13 | DNAJB1 (UniProt P25685) | 0.9861 ± 0.0058 | 0.973 ± 0.017 | 0.912 ± 0.024 | 0.999 ± 0.027 | 0.937 ± 0.044 | 0.925 ± 0.03
14 | WEE1 (UniProt P30291) | 1.14 ± 0.041 | 1.11 ± 0.029 | 1.15 ± 0.069 | 1.16 ± 0.055 | 1.13 ± 0.044 | 1.1 ± 0.069
15 | UniProt P32969 and related entries | 0.976 ± 0.016 | 0.92 ± 0.09 | 0.884 ± 0.098 | 0.804 ± 0.13 | 0.595 ± 0.1 | 0.954 ± 0.094

Limited to NP40-soluble protein abundance (concentration: 8mM), NP40-soluble protein abundance (concentration: 6mM) and NP40-soluble protein abundance (concentration: 10mM) (2 entries from above):
Row | Target | NP40-soluble protein abundance (concentration: 8mM) | NP40-soluble protein abundance (concentration: 6mM) | NP40-soluble protein abundance (concentration: 10mM)
2 | UniProt P29374 and related entries | 1.05 ± 0.061 | 1.06 ± 0.088 | 1.09 ± 0.056
3 | UniProt P17612 | 0.885 ± 0.028 | 0.924 ± 0.024 | 0.862 ± 0.043
